# In publication PMC11236154:
# Substitutions are numbered along the chain they refer to. Results are given in words; binding and its absence hold for the method and conditions named. In cells and extracts the contact can be indirect. Binding can be weak; no strength is given.
# Experiments:
# Experiment in all cases: co-IP; both proteins co-expressed in HEK293T cells; lysate in 1% Triton X-100, 50 mM Tris-HCl pH 7.5, 150 mM NaCl; Dynabeads magnetic beads; Western blotting; which partner was precipitated is not told
# [1] = target: T1, constitutively active (CA; GTP-bound) form of RAB2A, Q65L (UniProt P53994)
# T1 sequence: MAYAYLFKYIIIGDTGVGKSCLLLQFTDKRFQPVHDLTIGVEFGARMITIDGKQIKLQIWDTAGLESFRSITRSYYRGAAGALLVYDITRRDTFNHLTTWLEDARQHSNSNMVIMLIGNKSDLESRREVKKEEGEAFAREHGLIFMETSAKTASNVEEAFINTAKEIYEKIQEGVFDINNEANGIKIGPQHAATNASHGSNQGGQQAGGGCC
# [2] = target: T2, constitutively active (CA; GTP-bound) form of RAB2B, Q65L (UniProt P59279)
# T2 sequence: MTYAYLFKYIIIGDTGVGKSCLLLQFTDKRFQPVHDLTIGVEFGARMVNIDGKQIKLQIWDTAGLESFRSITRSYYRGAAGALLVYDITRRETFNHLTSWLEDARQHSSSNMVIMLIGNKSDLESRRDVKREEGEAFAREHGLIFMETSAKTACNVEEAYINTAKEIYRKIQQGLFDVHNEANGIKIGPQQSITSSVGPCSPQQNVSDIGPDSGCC
# [3] = target: T3, constitutively negative (CN; GDP-bound) form of RAB2A, S20N (UniProt P53994)
# T3 sequence: T1 sequence with S20N, L65Q
# [4] = target: T4, constitutively negative (CN; GDP-bound) form of RAB2B, S20N (UniProt P59279)
# T4 sequence: T2 sequence with S20N, L65Q
substance,measurement,setting,value
FLAG-tagged GARIN5B (mouse),binding,[1],binds
same,binding,[2],binds
same,binding,[3],binds weakly
same,binding,[4],binds
